Earlier results as cited in patent US20220230723A1, “Electronically Supervised Administration of a Pharmaceutical Composition” (Celon Pharma S.A., priority 2019, published 2022).
Some results were stated once for a whole list of compounds, not compound by compound.

Conditions: single dose; cited from earlier work

Compound | onset of antidepressant effect after administration [h]
CNC1(c2ccccc2Cl)CCCCC1=O (racemic) [ketamine] | 2 to 3
CN[C@]1(c2ccccc2Cl)CCCCC1=O [esketamine] | 2 to 3
